Data taken from PubChem BioAssay AID504834 (National Center for Advancing Translational Sciences (NCATS), 2011).
Among all 320,000 compounds or so, about 22,000 (6.9%) were called active. Inconclusive results, whose numbers are uncertain, are shown with a selection of clear calls. The call rests on the fitted dose curve; in most records, active means well fitted inhibition curve with a large enough effect; inconclusive means small, poorly fitted or top-dose-only effect, or another doubt; inactive means no such curve, though single readings can be large or run the other way. Potencies of inconclusive entries are doubtful fits and often do not repeat.

Test: Primary qHTS for delayed death inhibitors of the malarial parasite plastid, 96 hour incubation
Conditions: P. falciparum luciferase reporter growth; series mostly up to 28.7 µM; activity change, negative = inhibition: at the top concentration
How it was run: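 Luminescence readout: decreased luciferase signal marks inhibited growth of reporter-expressing P. falciparum in infected red cells (2% hematocrit, 0.05% parasitemia final), exposed to compound two generations (96 h, 37 C, 5% CO2).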
On the % scale 0 is the no-effect control and ±100 the full control effect; potency means the concentration at half of the fitted maximal effect.

SMILES | Potency | activity change, negative = inhibition
CCOC(=O)Cc1csc(NC(=O)CN2CCN(CC)CC2)n1 | inconclusive: 0.0738 µM [inhibitor, full curve, poor fit] | –
O=C(NCCCc1ccccc1)c1ccccc1O | – | inactive: -20.9%
CCOC(=O)c1c(C)oc(/N=C/c2ccccc2O)c1C#N | inconclusive: 0.522 µM [inhibitor, full curve, poor fit] | –
CCCCn1c(N)c(N(CC(C)C)C(=O)c2cccc(OCc3ccccc3)c2)c(=O)[nH]c1=O | inconclusive: 8.28 µM [inhibitor, single point] | –
CC(C)(C)c1cc(C(=O)N/N=C/c2ccc(F)cc2)n(-c2ccccc2)n1 | inconclusive: 3.7 µM [inhibitor, partial curve] | –
COc1ccc(-c2sc3ccc(OC)cc3c2-c2ccc(OC)c(F)c2)cc1 | – | inactive: -15.2%
Cc1ccccc1Cn1c(=N)n(CC(O)c2ccco2)c2ccccc21 (stereo not given) | inconclusive: 11.7 µM [inhibitor, single point] | –
COc1ccc(S(=O)(=O)n2ccc(-c3ccc4c(c3)CCC(C)(C)O4)n2)cc1 | active: 9.28 µM | –
COC(=O)C1SCC2C(=O)N(Cc3ccccc3)CC(=O)N21 (stereo not given) | – | inactive: 65.5%
Cc1ccc(S(=O)(=O)Cc2cn3cccnc3n2)cc1 | – | inactive: 3.91%
CN1CCN(NC(=O)c2cccc(Br)c2)CC1 | – | inactive: -1.07%
O=C(NC(=S)Nc1ccc(Br)cn1)c1cncc(Br)c1 | active: 13.1 µM | –
CCCCn1c(SCC(=O)N2CCc3ccccc32)nnc1-c1ccncc1 | inconclusive: 0.0047 µM [inhibitor, full curve, poor fit] | –
CCO[C@H]1OC(C(=O)NCc2ccccc2)=C[C@@H](c2ccc(Br)cc2)[C@@H]1CCCO | inconclusive: 10.4 µM [inhibitor, single point] | –
Cc1ccc(NC(=O)Nc2nnc(-c3ccccc3)o2)cc1 | – | inactive: 48.1%
C#CCn1ccc(O)c(Cc2c(F)cccc2Cl)c1=O | – | inactive: 16.2%
Cc1ccc(-c2csc3ncn(-n4c(C)ccc4C)c(=O)c23)o1 | active: 0.738 µM | –
CCc1nc2c(sc3nc4c(cc32)COC(C)(C)C4)c(=O)n1CCN(CC)CC | – | inactive: -8.22%
CC(C)(C)NC(=O)CN(C(=O)c1snc(C(=O)NC2CCCCC2)c1N)c1ccc(F)cc1 | inconclusive: 14.7 µM [inhibitor, partial curve, poor fit] | –
CCCN(C(=O)CSc1nc2ccccc2n1CC)C1CCS(=O)(=O)C1 (stereo not given) | inconclusive: 14.7 µM [inhibitor, single point] | –
Cc1ccc(-n2ncc(C(=O)NC3CC3)c2C2CCN(C(=O)OC(C)(C)C)CC2)c(C)c1 | inconclusive: 14.7 µM [inhibitor, single point] | –
Clc1ccc(-c2nnc(-c3ccccc3)c(-c3ccccc3)n2)cc1 | inconclusive: 0.0928 µM [inhibitor, full curve, poor fit] | –
CC(Oc1ccc(C#N)cc1)C(=O)c1ccc(F)c(F)c1 (stereo not given) | inconclusive: 18.5 µM [inhibitor, single point] | –
CC(C)(C)c1ccc(C(=O)NCC(=O)OCC(=O)Nc2nc(-c3ccc(F)cc3)cs2)cc1 | – | inactive: 61.9% [at 5.75 µM]

Taken from above, 20 compounds:
SMILES | Potency | activity change, negative = inhibition
O=C(NCCCc1ccccc1)c1ccccc1O | – | inactive: -20.9%
CCOC(=O)c1c(C)oc(/N=C/c2ccccc2O)c1C#N | inconclusive: 0.522 µM [inhibitor, full curve, poor fit] | –
CCCCn1c(N)c(N(CC(C)C)C(=O)c2cccc(OCc3ccccc3)c2)c(=O)[nH]c1=O | inconclusive: 8.28 µM [inhibitor, single point] | –
CC(C)(C)c1cc(C(=O)N/N=C/c2ccc(F)cc2)n(-c2ccccc2)n1 | inconclusive: 3.7 µM [inhibitor, partial curve] | –
COc1ccc(-c2sc3ccc(OC)cc3c2-c2ccc(OC)c(F)c2)cc1 | – | inactive: -15.2%
Cc1ccccc1Cn1c(=N)n(CC(O)c2ccco2)c2ccccc21 (stereo not given) | inconclusive: 11.7 µM [inhibitor, single point] | –
COc1ccc(S(=O)(=O)n2ccc(-c3ccc4c(c3)CCC(C)(C)O4)n2)cc1 | active: 9.28 µM | –
COC(=O)C1SCC2C(=O)N(Cc3ccccc3)CC(=O)N21 (stereo not given) | – | inactive: 65.5%
Cc1ccc(S(=O)(=O)Cc2cn3cccnc3n2)cc1 | – | inactive: 3.91%
CN1CCN(NC(=O)c2cccc(Br)c2)CC1 | – | inactive: -1.07%
O=C(NC(=S)Nc1ccc(Br)cn1)c1cncc(Br)c1 | active: 13.1 µM | –
CCCCn1c(SCC(=O)N2CCc3ccccc32)nnc1-c1ccncc1 | inconclusive: 0.0047 µM [inhibitor, full curve, poor fit] | –
CCO[C@H]1OC(C(=O)NCc2ccccc2)=C[C@@H](c2ccc(Br)cc2)[C@@H]1CCCO | inconclusive: 10.4 µM [inhibitor, single point] | –
Cc1ccc(NC(=O)Nc2nnc(-c3ccccc3)o2)cc1 | – | inactive: 48.1%
C#CCn1ccc(O)c(Cc2c(F)cccc2Cl)c1=O | – | inactive: 16.2%
Cc1ccc(-c2csc3ncn(-n4c(C)ccc4C)c(=O)c23)o1 | active: 0.738 µM | –
CCc1nc2c(sc3nc4c(cc32)COC(C)(C)C4)c(=O)n1CCN(CC)CC | – | inactive: -8.22%
CC(C)(C)NC(=O)CN(C(=O)c1snc(C(=O)NC2CCCCC2)c1N)c1ccc(F)cc1 | inconclusive: 14.7 µM [inhibitor, partial curve, poor fit] | –
CCCN(C(=O)CSc1nc2ccccc2n1CC)C1CCS(=O)(=O)C1 (stereo not given) | inconclusive: 14.7 µM [inhibitor, single point] | –
Cc1ccc(-n2ncc(C(=O)NC3CC3)c2C2CCN(C(=O)OC(C)(C)C)CC2)c(C)c1 | inconclusive: 14.7 µM [inhibitor, single point] | –

Record cards (already shown).
CN1CCN(NC(=O)c2cccc(Br)c2)CC1 in the list: activity change, negative = inhibition: inactive: -1.07%
CCOC(=O)c1c(C)oc(/N=C/c2ccccc2O)c1C#N in the list: Potency: inconclusive: 0.522 µM [inhibitor, full curve, poor fit]

(next part)

SMILES | Potency | activity change, negative = inhibition
CCN(CCNC(=O)C1CCCN(S(=O)(=O)CC)C1)c1ccccc1 (stereo not given) | inconclusive: 2.62 µM [inhibitor, partial curve, poor fit] | –
Cc1ccc(CCNC(=O)c2cc(C)nn2-c2ccccc2)cc1 | – | inactive: 7.84%
Cn1c(SCC(=O)NCC2CCCO2)ncc(C(=O)Nc2ccc(F)cc2)c1=O (stereo not given) | inconclusive: 13.1 µM [inhibitor, single point] | –
O=C(NNC(=O)c1cccs1)c1ccc(Cl)c(Cl)c1 | inconclusive: 10.4 µM [inhibitor, single point] | –
COc1cccc(C(=O)c2ncc(C(F)(F)F)cc2Cl)c1 | inconclusive: 11.7 µM [inhibitor, partial curve, poor fit] | –
CCN1CCN(S(=O)(=O)c2ccc(OC)c(Br)c2)CC1 | inconclusive: 18.5 µM [inhibitor, single point] | –
CCN(CC)CCOc1ccccc1C(=O)CCc1ccccc1 | inconclusive: 16.9 µM [inhibitor, partial curve] | –
CNC(=S)NNC(=O)c1sccc1OCc1cccc(C(F)(F)F)c1 | active: 13.1 µM | –
O=C1CN(C(=O)COC(=O)/C=C/c2ccc(OC(F)F)cc2)c2ccccc2N1 | inconclusive: 14.7 µM [inhibitor, single point] | –
N#Cc1ccc(OCC(=O)n2cc(C(=O)c3cc(Cl)cc(Cl)c3O)cn2)cc1 | – | inactive: 15.6%
CC(=O)C1=C(O)C(=O)N(c2cccnc2)C1c1ccc(Cl)cc1 (stereo not given) | – | inactive: 26.4%
COc1ccc2nc(C)cc(SCC(=O)N/N=C/c3cccc4ccccc34)c2c1 | inconclusive: 18.5 µM [inhibitor, single point] | –
COc1ccc(C2=NS(=O)(=O)N(C)C(C(=O)N3CCC(C(N)=O)CC3)=C2)cc1 | – | inactive: 3.57%
O=C(O)c1ccc(CSc2nnc(-c3ccncc3)n2-c2ccc(Br)cc2)cc1 | inconclusive: 18.5 µM [inhibitor, single point] | –
Oc1[nH]c2ccccc2c1N=Nc1nc(Nc2ccccc2)nc(N2CCOCC2)n1 | inconclusive: 4.15 µM [inhibitor, single point] | –
CCn1c(=O)c([N+](=O)[O-])c(N2CCN(Cc3ccc4c(c3)OCO4)CC2)c2ccccc21 | inconclusive: 7.38 µM [inhibitor, partial curve, poor fit] | –
O=C(NCc1ccccc1Cl)C1CCCN(S(=O)(=O)c2cccc3nsnc23)C1 (stereo not given) | inconclusive: 18.5 µM [inhibitor, single point] | –
CC(C)CCN1CCN(Cc2cccc3nonc23)CC1CCO (stereo not given) | inconclusive: 11.7 µM [inhibitor, partial curve] | –
Cc1ccc(-c2csc3ncnc(SCC(=O)NCc4ccc5c(c4)OCO5)c23)cc1 | inconclusive: 14.7 µM [inhibitor, partial curve, poor fit] | –
O=C(Nc1ccc(F)cc1)c1cccnc1N1CCCCC1 | inconclusive: 18.5 µM [inhibitor, single point] | –
NS(=O)(=O)c1ccc(NC(=S)N2CCc3ccccc32)cc1 | – | inactive: 24.3%
O=C(CN(c1ccc(F)cc1)S(=O)(=O)c1ccc2c(c1)OCCO2)N1CCOCC1 | active: 1.04 µM | –
CCOC(=O)c1nnn(-c2ccccc2C#N)c1C | inconclusive: 18.5 µM [inhibitor, single point] | –
CCCCOc1cc(=O)[nH]c(=O)[nH]1 | inconclusive: 20.8 µM [inhibitor, partial curve, poor fit] | –

SMILES | Potency | activity change, negative = inhibition
O=c1[nH]c2cccnc2c2ccsc12 | – | inactive: 17.3%
COc1cccc(NC(=O)CN2CCN(c3nc(-c4cccc(OC)c4)cs3)CC2)c1 | – | inactive: -2.14%
CN1CCN(S(=O)(=O)c2ccc(NC(=O)COc3ccccc3)cc2)CC1 | inconclusive: 4.65 µM [inhibitor, partial curve, poor fit] | –
COc1cccc(N2CCN(C(=S)Nc3ccc(F)cc3)CC2)c1 | inconclusive: 18.5 µM [inhibitor, single point] | –
COc1ccc(O)c(C(c2c(C)[nH][nH]c2=O)c2c(C)[nH][nH]c2=O)c1 | – | inactive: 16.8%
CC(NS(=O)(=O)c1ccccc1)C(=O)Nc1ccc(S(N)(=O)=O)cc1 (stereo not given) | inconclusive: 18.5 µM [inhibitor, single point] | –
COc1cc(NC2c3ccccc3C(=O)N2Cc2ccccc2Cl)cc(OC)c1OC (stereo not given) | inconclusive: 0.465 µM [inhibitor, partial curve, poor fit] | –
Cc1nc2cc(-c3ccccc3)nn2c(C)c1CCC(=O)NCc1ccco1 | inconclusive: 11.7 µM [inhibitor, partial curve, poor fit] | –
COc1ccc(C2CC(c3ccc(F)cc3)n3nc(NS(C)(=O)=O)nc3N2)cc1 (stereo not given) | – | inactive: 58.9%
O=C1C=C(c2cc(F)ccc2F)C[C@@H](c2ccc(Cl)cc2)C1 | inconclusive: 3.7 µM [inhibitor, full curve] | –
COc1cc(NC(=O)CCc2nnc3ccc(N4CCC5(CC4)OCCO5)nn23)cc(OC)c1 | inconclusive: 10.4 µM [inhibitor, partial curve, poor fit] | –
CCCCCOc1ccc(C(=O)NCC2(c3ccccc3)CCOCC2)cc1 | inconclusive: 5.22 µM [inhibitor, partial curve, poor fit] | –
OC(CN1CCN(c2ccccc2)CC1)c1ccc2c(c1)CCN2 (stereo not given) | active: 9.28 µM | –
Cc1cccc(NC(=S)NC(C)C(c2ccccc2)N2CCN(C)CC2)c1C (stereo not given) | – | inactive: -25.3%
CC(=O)Nc1ccccc1C(=O)C(=O)Nc1ccc(C)c(C)c1 | – | inactive: -7.26%
CC(C)c1ccc(C(=O)NCCCN2CCN(CCCNC(=O)c3ccc(C(C)C)cc3)CC2)cc1 | inconclusive: 14.7 µM [inhibitor, single point] | –
CCNc1nc(NCC)n2c(SCC(=O)Nc3ccccc3F)nnc2n1 | inconclusive: 8.28 µM [inhibitor, partial curve] | –
CCOc1cc(N2CCOCC2)c(OCC)cc1NC(=O)COc1cccc(CC)c1 | inconclusive: 10.4 µM [inhibitor, single point] | –
CCCCC[C@]12Cc3ccccc3C(O1)C1=C(CC(C)(C)CC1=O)O2 | inconclusive: 4.26 µM [inhibitor, single point] | –
O=C(O)C1(S(=O)(=O)CCC(F)=C(F)F)CC1 | – | inactive: 45.3%
O=C(C1=C[C@H](c2ccc(Br)cc2)C[C@H](OCc2ccc(CO)cc2)O1)N1CCN(Cc2ccc3c(c2)OCO3)CC1 | active: 7.38 µM | –
COCCCNCCOCCOc1ccccc1-c1ccccc1 | inconclusive: 10.4 µM [inhibitor, partial curve, poor fit] | –
